For seven molecules, binding results are on record in paper PMC9604039.

Test [1] concerns the target T1, OsCIPK17 (BiFC fusion) (rice (Oryza sativa)) (UniProt Q75L42).
T1 sequence: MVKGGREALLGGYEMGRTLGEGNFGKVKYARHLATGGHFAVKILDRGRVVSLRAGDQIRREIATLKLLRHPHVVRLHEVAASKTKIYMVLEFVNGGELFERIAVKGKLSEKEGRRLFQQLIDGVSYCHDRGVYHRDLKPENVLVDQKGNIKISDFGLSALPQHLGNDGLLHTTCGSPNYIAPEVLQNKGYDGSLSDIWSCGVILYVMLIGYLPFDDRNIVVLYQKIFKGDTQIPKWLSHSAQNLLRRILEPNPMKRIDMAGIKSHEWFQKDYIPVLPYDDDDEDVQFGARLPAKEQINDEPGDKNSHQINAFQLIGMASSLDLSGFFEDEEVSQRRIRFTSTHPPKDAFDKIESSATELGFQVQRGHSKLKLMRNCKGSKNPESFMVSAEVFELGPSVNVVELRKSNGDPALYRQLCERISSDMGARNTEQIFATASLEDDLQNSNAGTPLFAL
Briefly: split reporter; BiFC with pSPYCE/pSPYNE fusions expressed in Nicotiana benthamiana leaves for three days; YFP fluorescence by confocal microscopy.

The target in test [2] is T2, OsCIPK17 (rice (Oryza sativa)) (UniProt Q75L42).
T2 sequence: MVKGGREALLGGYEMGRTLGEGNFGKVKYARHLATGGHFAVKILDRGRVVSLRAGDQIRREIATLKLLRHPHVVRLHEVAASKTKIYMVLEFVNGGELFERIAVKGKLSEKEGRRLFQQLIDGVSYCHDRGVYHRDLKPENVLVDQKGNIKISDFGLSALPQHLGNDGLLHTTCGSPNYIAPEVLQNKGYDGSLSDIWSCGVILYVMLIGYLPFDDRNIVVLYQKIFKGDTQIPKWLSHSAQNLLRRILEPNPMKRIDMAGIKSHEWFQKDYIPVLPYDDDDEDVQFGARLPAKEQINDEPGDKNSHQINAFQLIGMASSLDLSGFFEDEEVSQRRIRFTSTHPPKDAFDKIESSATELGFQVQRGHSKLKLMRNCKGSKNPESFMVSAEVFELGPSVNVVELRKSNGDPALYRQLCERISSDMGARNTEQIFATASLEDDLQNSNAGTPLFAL
In words: two-hybrid; Y2H of OsCIPK17 with predicted target proteins; for OsJAMYB AbA and 3-AT were added to QDO medium to inhibit self-activation; vectors of the partners not stated.

Test [3] has as its target OsCIPK27 (rice (Oryza sativa)). In words: two-hybrid; Matchmaker Gold system, Y2HGold strain; OsCBL in pGADT7, OsCIPK in pGBKT7; growth on DDO, then TDO and QDO media.

Results are given in words; binding and its absence hold for the method and conditions named. Binding can be weak; no strength is given. For some of these results: In cells and extracts the contact can be indirect. For some of these results: Sequences can lack the tags named with a protein.

As for “OsDREB1H (BiFC fusion) (rice (Oryza sativa))”, the binding entry in test [1] is “binds”. In the case of OsDREB1H (rice (Oryza sativa)), the binding entry in test [2] is recorded as “binds”. For “OsNAC77 (BiFC fusion) (rice (Oryza sativa))”, the binding entry in test [1] is reported as “binds”. With OsNAC77 (rice (Oryza sativa)), in test [2], the binding result is reported as “binds”. In the case of “OsPP2C77 (BiFC fusion) (rice (Oryza sativa))”, the binding result in test [1] was “binds”.

As for OsPP2C77 (rice (Oryza sativa)), in test [2], the binding entry was “binds”.

B1: OsCBL8 (protein, UniProt Q3HRN9 1-213)
chain: MGCVSSKQFKRAAQHEDPAILAKETTFSVSEVEALFELFKKISHSIFRDGLIHKEEFQLALFRNSNKKNLFANRIFDLFDLKRNGVIDFGEFVRSLSIFHPETPLGDKIAFAFRLYDLRGTGCIEREELHEMVLALLNESDLFLSEEAVEQIVDQTFKQADLNDDGKIDPDEWKTFASKNPALLKNMTLPYLKDITMVFPSFILNSEVCEEEL
B1: the binding result in test [3] is “binds”.
